Results on 1 molecule are retold here after PubChem BioAssay AID1233 (SRMLSC, 2008).

The list shows a part of the results, in another mix than the full data. Entries with a potency or affinity are not part of this list. Activity calls are given as the source filed them.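 Rule for the calls: active = a dose-response curve fit returns a half-maximal inhibitory concentration, extrapolated values included; inactive = the fit returns no such concentration.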

The assay deals with HMG-CoA reductase [Enterococcus faecalis] (UniProt Q9FD70). Kind of assay: class II HMG-CoA reductase inhibition potency – biochemical, Enterococcus faecalis, confirmation (AID 1233).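 Note: 0% = full reaction carrier wells and 100% = background wells lacking mevalonate.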 The conditions noted are these: purified E. faecalis HMGR, NADPH absorbance 340 nm kinetics; at 100 µM (top of the series).

As to `CN(C)CCOC(c1ccccc1)c1ccccc1`, the inhibition (as a rule, the relative decrease from the control value, in per cent) was inactive: -3.81%.
